Measured values from PMC6677787.
No constants are given. Whether binding was seen depends on the method and setting. Binding seen in cells or lysates may run through a third protein. Some results given as binding are weak or reduced against the parent protein; the word gives no strength. One block for each substance: values may come before it.

Sequences of proteins named here, by UniProt entry; tags and fusion partners are left off. A change or cut given only in a name is not applied to a line headed by its entry.
UniProt Q149N8: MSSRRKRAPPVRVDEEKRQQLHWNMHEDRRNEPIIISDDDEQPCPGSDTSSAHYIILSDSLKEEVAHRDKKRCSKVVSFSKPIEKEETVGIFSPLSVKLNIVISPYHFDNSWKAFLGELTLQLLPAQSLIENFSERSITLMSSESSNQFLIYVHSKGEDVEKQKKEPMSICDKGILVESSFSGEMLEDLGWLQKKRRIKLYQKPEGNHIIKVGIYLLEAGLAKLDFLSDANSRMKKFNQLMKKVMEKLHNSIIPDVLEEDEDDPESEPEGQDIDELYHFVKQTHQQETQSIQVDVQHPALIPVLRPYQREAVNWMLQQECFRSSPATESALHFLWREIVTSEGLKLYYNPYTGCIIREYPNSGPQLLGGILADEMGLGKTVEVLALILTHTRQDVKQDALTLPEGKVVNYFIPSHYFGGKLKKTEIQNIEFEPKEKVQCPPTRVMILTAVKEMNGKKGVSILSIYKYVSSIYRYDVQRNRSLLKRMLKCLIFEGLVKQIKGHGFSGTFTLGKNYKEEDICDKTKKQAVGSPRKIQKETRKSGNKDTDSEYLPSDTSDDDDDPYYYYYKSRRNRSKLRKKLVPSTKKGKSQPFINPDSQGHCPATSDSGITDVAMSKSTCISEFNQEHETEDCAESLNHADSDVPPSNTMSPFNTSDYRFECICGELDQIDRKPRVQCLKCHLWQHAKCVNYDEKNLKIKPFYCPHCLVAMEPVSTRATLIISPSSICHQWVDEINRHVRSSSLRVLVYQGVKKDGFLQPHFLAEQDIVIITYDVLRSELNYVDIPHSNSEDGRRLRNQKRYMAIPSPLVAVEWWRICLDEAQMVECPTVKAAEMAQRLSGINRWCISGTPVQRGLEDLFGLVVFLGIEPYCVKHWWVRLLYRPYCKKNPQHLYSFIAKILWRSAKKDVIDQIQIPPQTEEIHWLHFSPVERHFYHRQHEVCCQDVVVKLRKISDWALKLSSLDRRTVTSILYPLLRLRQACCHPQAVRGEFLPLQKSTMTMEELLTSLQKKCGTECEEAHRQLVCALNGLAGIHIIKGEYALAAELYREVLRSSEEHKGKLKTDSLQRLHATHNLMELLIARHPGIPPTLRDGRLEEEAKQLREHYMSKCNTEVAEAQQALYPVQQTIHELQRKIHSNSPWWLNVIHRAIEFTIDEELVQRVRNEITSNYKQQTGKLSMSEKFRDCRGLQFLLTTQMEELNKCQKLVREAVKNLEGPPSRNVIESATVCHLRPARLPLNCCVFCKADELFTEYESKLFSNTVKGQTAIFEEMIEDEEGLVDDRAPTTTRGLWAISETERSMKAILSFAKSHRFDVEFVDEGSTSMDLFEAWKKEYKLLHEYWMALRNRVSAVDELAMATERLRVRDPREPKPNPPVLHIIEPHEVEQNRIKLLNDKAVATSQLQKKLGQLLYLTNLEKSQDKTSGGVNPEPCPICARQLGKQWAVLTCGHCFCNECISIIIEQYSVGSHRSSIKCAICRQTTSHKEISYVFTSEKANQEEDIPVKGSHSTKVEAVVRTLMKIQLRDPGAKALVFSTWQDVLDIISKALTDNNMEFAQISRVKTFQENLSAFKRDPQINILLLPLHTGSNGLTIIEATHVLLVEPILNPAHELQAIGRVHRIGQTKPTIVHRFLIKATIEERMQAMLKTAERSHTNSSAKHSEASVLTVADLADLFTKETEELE
UniProt O94916: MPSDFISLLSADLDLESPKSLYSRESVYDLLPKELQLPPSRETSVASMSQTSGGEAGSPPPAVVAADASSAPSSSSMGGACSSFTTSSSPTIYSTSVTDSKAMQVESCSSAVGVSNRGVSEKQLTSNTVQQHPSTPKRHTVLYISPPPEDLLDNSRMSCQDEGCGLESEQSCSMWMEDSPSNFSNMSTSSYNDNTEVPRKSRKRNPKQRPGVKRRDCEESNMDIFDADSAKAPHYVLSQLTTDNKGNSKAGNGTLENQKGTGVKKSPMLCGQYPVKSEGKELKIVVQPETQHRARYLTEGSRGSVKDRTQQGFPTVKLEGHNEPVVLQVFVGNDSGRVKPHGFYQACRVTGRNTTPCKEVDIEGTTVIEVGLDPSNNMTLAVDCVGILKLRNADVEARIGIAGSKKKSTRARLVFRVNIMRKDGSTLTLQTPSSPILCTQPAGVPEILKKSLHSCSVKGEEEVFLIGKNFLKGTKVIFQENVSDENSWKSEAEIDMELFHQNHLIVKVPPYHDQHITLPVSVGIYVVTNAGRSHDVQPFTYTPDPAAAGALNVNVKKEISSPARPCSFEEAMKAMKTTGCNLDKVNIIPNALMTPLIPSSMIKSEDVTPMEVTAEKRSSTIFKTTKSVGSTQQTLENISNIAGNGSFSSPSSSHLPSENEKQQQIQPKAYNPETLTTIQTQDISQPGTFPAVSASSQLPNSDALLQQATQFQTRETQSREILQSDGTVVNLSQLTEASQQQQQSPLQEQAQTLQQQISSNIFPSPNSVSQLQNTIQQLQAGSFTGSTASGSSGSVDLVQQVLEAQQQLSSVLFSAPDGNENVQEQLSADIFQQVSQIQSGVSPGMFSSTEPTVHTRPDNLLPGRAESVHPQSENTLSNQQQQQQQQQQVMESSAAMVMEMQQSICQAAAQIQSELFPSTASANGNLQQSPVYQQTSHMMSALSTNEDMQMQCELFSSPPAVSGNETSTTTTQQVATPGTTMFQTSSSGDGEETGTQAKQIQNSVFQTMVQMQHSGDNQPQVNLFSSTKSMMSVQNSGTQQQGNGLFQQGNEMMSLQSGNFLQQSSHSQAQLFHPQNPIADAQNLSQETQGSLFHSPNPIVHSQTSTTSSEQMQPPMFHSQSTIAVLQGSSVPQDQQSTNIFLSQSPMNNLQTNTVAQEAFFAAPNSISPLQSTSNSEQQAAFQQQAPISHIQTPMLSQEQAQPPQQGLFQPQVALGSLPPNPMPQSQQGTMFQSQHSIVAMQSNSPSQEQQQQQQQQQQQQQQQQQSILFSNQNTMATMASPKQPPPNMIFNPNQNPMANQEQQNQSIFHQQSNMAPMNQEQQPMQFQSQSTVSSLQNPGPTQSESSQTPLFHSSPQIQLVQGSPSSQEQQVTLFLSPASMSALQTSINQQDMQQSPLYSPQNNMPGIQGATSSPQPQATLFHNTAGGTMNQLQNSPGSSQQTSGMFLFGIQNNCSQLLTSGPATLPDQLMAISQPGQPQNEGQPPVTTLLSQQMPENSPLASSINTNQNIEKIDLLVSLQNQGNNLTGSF
UniProt Q8TAF3: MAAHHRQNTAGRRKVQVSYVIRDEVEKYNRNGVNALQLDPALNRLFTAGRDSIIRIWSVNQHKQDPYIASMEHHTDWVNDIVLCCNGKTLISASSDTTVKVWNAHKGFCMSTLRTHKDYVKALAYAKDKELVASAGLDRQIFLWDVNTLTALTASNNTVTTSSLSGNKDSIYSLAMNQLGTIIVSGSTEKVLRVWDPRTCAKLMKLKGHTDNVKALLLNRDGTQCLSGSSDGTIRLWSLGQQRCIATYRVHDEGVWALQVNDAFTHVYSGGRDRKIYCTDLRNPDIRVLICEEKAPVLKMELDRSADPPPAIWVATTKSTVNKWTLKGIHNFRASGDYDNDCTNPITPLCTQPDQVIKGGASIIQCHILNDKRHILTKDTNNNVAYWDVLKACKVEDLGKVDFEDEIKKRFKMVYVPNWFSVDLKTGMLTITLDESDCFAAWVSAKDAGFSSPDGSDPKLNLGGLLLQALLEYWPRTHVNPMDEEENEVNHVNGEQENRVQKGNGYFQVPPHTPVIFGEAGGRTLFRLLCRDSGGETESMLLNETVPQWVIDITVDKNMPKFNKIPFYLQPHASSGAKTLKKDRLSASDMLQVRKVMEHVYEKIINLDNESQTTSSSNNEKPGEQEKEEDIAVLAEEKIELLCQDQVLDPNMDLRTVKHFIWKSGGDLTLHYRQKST

Key:
[1] = molecular target: SHPRH, endogenous (human (endogenous in HEK293)) (UniProt Q149N8); assay: co-IP; endogenous proteins; HEK293 cell lysates immunoprecipitated with anti-TonEBP, anti-SHPRH or anti-USP1 antibody, normal serum as negative control; blots
[2] = molecular target: tonicity-responsive enhancer-binding protein (TonEBP), endogenous (human (endogenous in HEK293)) (UniProt O94916); assay: as above
FLAG-TonEBP (human) = FLAG-TonEBP (human) (UniProt O94916); assay: co-IP; HEK293 cells transfected with plasmids for tagged proteins (FLAG, Myc, HA); lysates immunoprecipitated with the anti-tag antibody, blots; in some EtBr (0.1 mg/mL) during the IP or benzonase, TonEBP depletion before the analysis, or 0.01% MMS for 1 h and 1-4 h in fresh medium
[3] = molecular target: hemagglutinin (HA)-TonEBP (human) (UniProt O94916); assay: as above
[4] = molecular target: TonEBP (construct of the co-IPs of Figures S1C, S1E, S6B and S6C not shown) (UniProt O94916); assay: co-IP; Figures S1C, S1E, S6B, S6C; cells, constructs and antibodies not shown; SHPRH knockdown in Figure S6C

binding [1]: binds
Substance: tonicity-responsive enhancer-binding protein (TonEBP), endogenous (from UniProt O94916 1-1531)

binding [2]: binds
Substance: SHPRH, endogenous (from UniProt Q149N8 1-1683)

Substance: Myc-SHPRH (from UniProt Q149N8 1-1683)
binding (FLAG-TonEBP (human)): binds
binding [3]: binds

binding [4]: binds
Substance: USP1-associated factor 1 (UAF1) (from UniProt Q8TAF3 1-677)
